# Reference: patent publication US20070105940A1, “Method for treating pain” (ALLERGAN, INC., priority 2005, published 2007)
# Assays:
# [1] = system: OFF cells of the rostral ventromedial medulla; assay: Inhibitory effect of formalin on OFF cells of the rostral ventromedial medulla; type: in vivo, rat; details: FIG. 2B
# [2] = system: nociceptive response to formalin injected into the rat paw; assay: Nociceptive response to formalin injected into the rat paw; type: in vivo
smiles,measurement,setting,value
Cc1c(C(=O)NN2CCCCC2)nn(-c2ccc(Cl)cc2Cl)c1-c1ccc(I)cc1 [AM251],effect on the action of AA-5-HT on OFF cells,[1],reversed
same,effect on the anti-hyperalgesic effect of AA-5-HT,"[2]; AA-5-HT 4 μg/rat intra-PAG, AM251 (nmol/rat), capsazepine 6 nmol/rat",counteracted
same,effect on the action of AA-5-HT injected into the paw,[2]; AA-5-HT 1 mg/rat s.c. into the paw,counteracted
